1 substance from article PMC7392003 can be followed below.

Sequences of proteins named here, by UniProt entry; tags and fusion partners are left off.
UniProt O95832: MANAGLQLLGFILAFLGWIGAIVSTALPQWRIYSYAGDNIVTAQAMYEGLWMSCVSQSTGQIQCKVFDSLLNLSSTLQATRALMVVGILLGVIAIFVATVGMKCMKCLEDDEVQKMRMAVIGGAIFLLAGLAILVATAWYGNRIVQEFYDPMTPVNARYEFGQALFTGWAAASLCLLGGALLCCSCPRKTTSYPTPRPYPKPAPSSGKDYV

No constants are given. Whether binding was seen depends on the method and setting. In cells and extracts the contact can be indirect. Some results given as binding are weak or reduced against the parent protein; the word gives no strength. Tags and fused reporters may be left off the sequences shown.

In this test the target is T1, EPHB6-myc (ephrin receptor B6) (UniProt O15197).
T1 sequence: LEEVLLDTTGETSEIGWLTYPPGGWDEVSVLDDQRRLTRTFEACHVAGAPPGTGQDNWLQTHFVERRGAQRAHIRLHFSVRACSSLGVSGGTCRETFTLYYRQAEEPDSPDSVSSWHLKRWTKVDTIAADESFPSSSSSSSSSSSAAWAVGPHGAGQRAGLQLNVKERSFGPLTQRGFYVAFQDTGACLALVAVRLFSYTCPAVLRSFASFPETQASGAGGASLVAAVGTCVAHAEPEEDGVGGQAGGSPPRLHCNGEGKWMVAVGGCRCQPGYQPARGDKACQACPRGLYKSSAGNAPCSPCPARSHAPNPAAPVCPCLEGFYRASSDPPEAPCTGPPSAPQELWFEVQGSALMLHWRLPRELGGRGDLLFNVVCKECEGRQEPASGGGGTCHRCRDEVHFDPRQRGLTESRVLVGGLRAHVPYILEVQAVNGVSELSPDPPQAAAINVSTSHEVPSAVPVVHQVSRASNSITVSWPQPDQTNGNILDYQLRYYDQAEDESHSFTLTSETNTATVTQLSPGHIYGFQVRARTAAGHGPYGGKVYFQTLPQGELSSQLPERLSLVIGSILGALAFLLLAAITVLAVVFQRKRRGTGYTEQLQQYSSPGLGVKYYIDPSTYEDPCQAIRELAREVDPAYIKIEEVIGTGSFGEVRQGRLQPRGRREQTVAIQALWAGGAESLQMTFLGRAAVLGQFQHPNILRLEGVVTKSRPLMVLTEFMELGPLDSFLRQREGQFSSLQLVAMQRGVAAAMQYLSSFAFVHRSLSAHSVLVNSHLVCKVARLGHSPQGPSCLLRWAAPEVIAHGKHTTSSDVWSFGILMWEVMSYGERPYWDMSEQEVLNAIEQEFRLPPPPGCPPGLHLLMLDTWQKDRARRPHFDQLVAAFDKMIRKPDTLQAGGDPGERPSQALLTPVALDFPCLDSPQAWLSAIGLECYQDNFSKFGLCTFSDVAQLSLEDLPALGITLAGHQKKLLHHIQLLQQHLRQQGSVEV
The test can be described thus: co-IP; HA-CLDN1 and/or EPHB6-myc overexpressed in HEK293T; 0.5 mg total lysate in IP lysis buffer (100 mM NaCl, 1% NP-40, 100 uM Na3VO4, 50 mM NaF, 30 mM sodium pyrophosphate, 20 mM Tris-HCl pH 7.5); IP with anti-myc antibody or mouse IgG on protein G magnetic beads; immunoblot with anti-HA. (In general: A western blot detects proteins with antibodies after separation by electrophoresis.)

With “HA-CLDN1 (Claudin 1) (from UniProt O95832 1-211)”, the binding result is listed as “binds”.
